Counter-ions that a name gives are not always drawn. ± gives the standard deviation of the averaged measurements. This is one part of the list. Many values rest on one well or one pass, so single values are uncertain.
System: RAW 264.7
Assay: HMGB1-induced TNF-alpha production relative to HMGB1-stimulated control; higher = more TNF-alpha secretion (less inhibition)
Conditions: stimulus: HMGB1 5 ug/ml, 18 h
[1] = compound concentration: 1 ug/ml

SMILES | HMGB1-induced TNF-alpha production (compound concentration: 3 uM) | HMGB1-induced TNF-alpha production [1]
CO[C@H]1C[C@H](O[C@H]2[C@H](C)[C@@H](O[C@@H]3O[C@H](C)C[C@H](N(C)C)[C@H]3OC(C)=O)[C@@H](C)C[C@@]3(CO3)C(=O)[C@H](C)[C@@H](OC(C)=O)[C@@H](C)[C@@H](C)OC(=O)[C@@H]2C)O[C@@H](C)[C@@H]1OC(C)=O [Troleandomycin] | 76.6 ± 13% | –
COc1ccc(-c2ccc(=N)n(CCCC(=O)O)n2)cc1 | 104% | –
COc1ccc(-c2ccc(=N)n(CCCC(=O)O)n2)cc1 [Gabazine] | 61.8% | –
CCCCCCCCCCCCCCCC(=O)NCCO [Palmitoylethanolamide] | 107% | –
CN1CCN(C2=Nc3cc(Cl)ccc3Nc3ccccc32)CC1 [Clozapine] | 72.6 ± 20% | –
CN1CCN(C2=Nc3cc(Cl)ccc3Nc3ccccc32)CC1 | 100% | –
C=CC[C@H](N)C(=O)O [L-allylglycine] | 95% | –
Brc1ccc([C@H]2CN3CCSC3=N2)cc1 [S(-)-p-Bromotetramisole oxalate] | 75.9% | –
C[C@@H]1NC(=O)NC1=O [Methylhydantoin-5-(L)] | 94.9% | –
COc1ccc(-c2coc3cc(OC4OC(CO)C(O)C(O)C4O)cc(O)c3c2=O)cc1 (stereo not drawn) [Sissotrine] | – | 71.2%
O=c1cc(-c2cccc(O)c2)oc2cccc(O)c12 | – | 43.9%
O=C(O)c1ccccc1Nc1ccccc1 [N-Phenylanthranilic acid] | 80.1% | –
N=C1C=CC(=C(c2ccc(N)cc2)c2ccc(N)cc2)C=C1 | 195% | –
O=c1c(O)c(-c2ccc(O)cc2)oc2ccc(O)cc12 | – | 67.8%
Cc1ccc(-c2ncc(Cl)cc2-c2ccc(S(C)(=O)=O)cc2)cn1 [Etoricoxib] | 99.8 ± 2.1% | –
CCCc1c(OCCCCc2nnn[nH]2)ccc(C(C)=O)c1O | 103% | –
CC1CCc2c(N3CCC(O)CC3)c(F)cc3c(=O)c(C(=O)O)cn1c23 (stereo not drawn) [Nadifloxacin] | 97.9 ± 22% | –
Clc1ccc(COC(Cn2ccnc2)c2ccc(Cl)cc2Cl)c(Cl)c1 (stereo not drawn) | 75.5% | –
Clc1ccc(COC(Cn2ccnc2)c2ccc(Cl)cc2Cl)c(Cl)c1 (stereo not drawn) [Miconazole] | 54.9 ± 2% | –
NCC=CC(=O)O (stereo in doubt) [cis-4-Aminocrotonic acid] | 91% | –
Cc1cc(=O)n(-c2ccccc2)n1C | 73.1% | –

SMILES | HMGB1-induced TNF-alpha production (compound concentration: 3 uM) | HMGB1-induced TNF-alpha production [1]
Cc1cc(=O)n(-c2ccccc2)n1C [Antipyrine] | 72% | –
CC(=O)[C@H]1CC[C@H]2[C@@H]3CC=C4C[C@@H](OS(=O)(=O)O)CC[C@]4(C)[C@H]3CC[C@]12C [Pregnenolone sulfate sodium] | 103% | –
NC12CC3CC(CC(C3)C1)C2 | 82.6% | –
NC12CC3CC(CC(C3)C1)C2 [Amantadine hydrochloride] | 84.7% | –
NC12CC3CC(CC(C3)C1)C2 [Adamantamine fumarate] | 85.3% | –
N#C/C(=C\c1ccc(O)c(O)c1)C(=O)c1ccc(O)c(O)c1 [Tyrphostin AG 538] | 88.9% | –
CO[C@H]1O[C@@H]2O[C@@]3(C)CC[C@H]4[C@H](C)CC[C@@H]([C@H]1C)[C@@]24OO3 | 104% | –
O=C(O)c1cc(O)c2c(c1)[C@@H]([C@H]1c3cc(C(=O)O)cc(O)c3C(=O)c3c(O[C@@H]4O[C@H](CO)[C@@H](O)[C@H](O)[C@H]4O)cccc31)c1cccc(O[C@@H]3O[C@H](CO)[C@@H](O)[C@H](O)[C@H]3O)c1C2=O [Sennoside B] | – | 63.5%
CC1(C2CCCC2)Cc2cc(OCC(=O)O)c(Cl)c(Cl)c2C1=O (stereo not drawn) | 107% | –
CCOC(=O)[C@]12CC1/C(=N\O)c1ccccc1O2 (stereo partly drawn) | 89.8% | –
O=c1cc(-c2ccc(O)c(O)c2)oc2cc(O)cc(O)c12 [Luteolin] | 125% | –
CC(C)(C(=O)c1cccnc1)c1cccnc1 [Metyrapone] | 99.8% | –
NCCCCNCCCN [Spermidine trihydrochloride] | 102% | –
N[C@H](CO)C(=O)O [D-Serine] | 117% | –
NC(Cc1cccc(-c2ccccc2CP(=O)(O)O)c1)C(=O)O (stereo not drawn) [Phenylbenzene-omega-phosphono-alpha-amino acid] | 108% | –
O=S(=O)(c1cccc2cnccc12)N1CCNCC1 | 88.5% | –
CC(=O)N(O)CCCCCNC(=O)CCC(=O)N(O)CCCCCNC(=O)CCC(=O)N(O)CCCCCN | 78.3% | –
CC(=O)N(O)CCCCCNC(=O)CCC(=O)N(O)CCCCCNC(=O)CCC(=O)N(O)CCCCCN [Deferoxamine mesylate] | 106% | –
O=C1Cc2cc(CCN3CCN(c4nsc5ccccc45)CC3)c(Cl)cc2N1 [Ziprasidone hydrochloride monohydrate] | 91.9% | –
O=C1Cc2cc(CCN3CCN(c4nsc5ccccc45)CC3)c(Cl)cc2N1 [Ziprasidone  Hydrochloride] | 89.1% | –
CC(C)/N=c1\cc2n(-c3ccc(Cl)cc3)c3ccccc3nc-2cc1Nc1ccc(Cl)cc1 [Clofazimine] | 65.8% | –

SMILES | HMGB1-induced TNF-alpha production (compound concentration: 3 uM) | HMGB1-induced TNF-alpha production [1]
CC(C)/N=c1\cc2n(-c3ccc(Cl)cc3)c3ccccc3nc-2cc1Nc1ccc(Cl)cc1 | 92 ± 20% | –
CCN[C@H]1C[C@H](C)S(=O)(=O)c2sc(S(N)(=O)=O)cc21 [Dorzolamide] | 123% | –
CCN[C@H]1C[C@H](C)S(=O)(=O)c2sc(S(N)(=O)=O)cc21 [Dorzolamide hydrochloride] | 124% | –
CO[C@@]1(NC(=O)CSCC#N)C(=O)N2C(C(=O)O)=C(CSc3nnnn3C)CS[C@@H]21 | 81.3% | –
CO[C@@]1(NC(=O)CSCC#N)C(=O)N2C(C(=O)O)=C(CSc3nnnn3C)CS[C@@H]21 [Cefmetazole sodium] | 87.3% | –
CO[C@@]1(NC(=O)CSCC#N)C(=O)N2C(C(=O)O)=C(CSc3nnnn3C)CS[C@@H]21 [Cefmetazole sodium salt] | 105% | –
C[C@@H]1[C@H](O)[C@@H](C)/C=C/C=C/C=C/C=C/C=C/C=C/C=C/[C@H](O[C@@H]2O[C@H](C)[C@@H](O)[C@H](N)[C@@H]2O)C[C@@H]2O[C@](O)(C[C@@H](O)C[C@@H](O)[C@H](O)CC[C@@H](O)C[C@@H](O)CC(=O)O[C@H]1C)C[C@H](O)[C@H]2C(=O)O [Amphotericin B] | 111% | –
C[C@@H]1[C@H](O)[C@@H](C)/C=C/C=C/C=C/C=C/C=C/C=C/C=C/[C@H](O[C@@H]2O[C@H](C)[C@@H](O)[C@H](N)[C@@H]2O)C[C@@H]2O[C@](O)(C[C@@H](O)C[C@@H](O)[C@H](O)CC[C@@H](O)C[C@@H](O)CC(=O)O[C@H]1C)C[C@H](O)[C@H]2C(=O)O | 110 ± 56% | –
CCC(=O)Oc1cc2c(C)cc(=O)oc2cc1Cl | – | 71.1%
CCOC(=O)C(C)(C)Oc1ccc(Cl)cc1 [Clofibrate] | 96.7 ± 11% | –
CCOC(=O)C(C)(C)Oc1ccc(Cl)cc1 | 74.7% | –
c1cnc2c(c1)ccc1cccnc12 [1,10-Phenanthroline monohydrate] | 115% | –
CC(C)NC[C@H](O)COc1ccc(CC(N)=O)cc1 [(S)-(-)-Atenolol] | 78.7% | –
CC(C)NC[C@H](O)COc1ccc(CC(N)=O)cc1 [S(-)-Atenolol] | 104% | –
CCC(NC(C)C)C(O)c1ccc(O)c(O)c1 (stereo not drawn) | 53.6% | –
CCC(NC(C)C)C(O)c1ccc(O)c(O)c1 (stereo not drawn) [Isoetharine mesylate salt] | 60.3% | –
CCC(NC(C)C)C(O)c1ccc(O)c(O)c1 (stereo not drawn) [Isotharine mesylate] | 52.3% | –
CCC(Cc1c(I)cc(I)c(N)c1I)C(=O)O (stereo not drawn) | 55.7% | –
CCC(Cc1c(I)cc(I)c(N)c1I)C(=O)O (stereo not drawn) [Iopanoic acid] | 130% | –
CN1CCc2cccc3c2[C@H]1Cc1ccc(O)c(O)c1-3 [Apomorphine hydrochloride hemihydrate] | 102% | –
CN1CCc2cccc3c2[C@H]1Cc1ccc(O)c(O)c1-3 [R(-) Apomorphine hydrochloride hemihydrate] | 78.4% | –

SMILES | HMGB1-induced TNF-alpha production (compound concentration: 3 uM) | HMGB1-induced TNF-alpha production [1]
CN1CCc2cccc3c2[C@H]1Cc1ccc(O)c(O)c1-3 | 80.2% | –
CN1CCc2cccc3c2[C@H]1Cc1ccc(O)c(O)c1-3 [Apomorphine R (-)] | 108% | –
O=C1C=C2CC3(O)COc4c(ccc(O)c4O)C3=C2C=C1O (stereo not drawn) [Hematein] | – | 99.6%
C[C@]12CC[C@@H]3c4ccc(O)cc4CC[C@H]3[C@@H]1CC[C@@H]2OC(=O)CCC1CCCC1 [beta-estradiol 17-cypionate] | – | 66.3%
C[C@]12CC[C@@H]3c4ccc(O)cc4CC[C@H]3[C@@H]1CC[C@@H]2OC(=O)CCC1CCCC1 | 66.6% | –
O=C1CC(c2ccc(O)cc2)Oc2ccccc21 (stereo not drawn) [4'-hydroxyflavanone] | – | 66.4%
CN(C)CCOC(=O)COc1ccc(Cl)cc1 [Meclofenoxate hydrochloride] | 100% | –
CN(C)CCOC(=O)COc1ccc(Cl)cc1 | 87.2% | –
CN(C)CCOC(=O)COc1ccc(Cl)cc1 [Centrophenoxine hydrochloride] | 85.1% | –
Brc1c(NC2=NCCN2)ccc2nccnc12 | 104% | –
O=C(OCc1ccccc1)c1ccccc1 | 93.7% | –
N#C/C(=C\c1ccc(O)c(O)c1)C(=O)NCCCNC(=O)/C(C#N)=C/c1ccc(O)c(O)c1 [Tyrphostin AG 537] | 119% | –
CCCc1nc(C(C)(C)O)c(C(=O)O)n1Cc1ccc(-c2ccccc2-c2nnn[nH]2)cc1 [Olmesartan] | 99.5 ± 7.6% | –
Cc1ccc2c(Cl)cc(Cl)c(O)c2n1 | 74.7% | –
N=C(N)N/N=C/c1c(Cl)cccc1Cl [Guanabenz] | 95.2% | –
N=C(N)N/N=C/c1c(Cl)cccc1Cl [Guanabenz acetate] | 82.1 ± 6.1% | –
N=C(N)N/N=C/c1c(Cl)cccc1Cl | 85% | –
OC(CCN1CCCCC1)(c1ccccc1)C1CCCCC1 (stereo not drawn) [Trihexyphenidyl hydrochloride] | 103% | –
OC(CCN1CCCCC1)(c1ccccc1)C1CCCCC1 (stereo not drawn) | 96.4% | –
OC(CCN1CCCCC1)(c1ccccc1)C1CCCCC1 (stereo not drawn) [Trihexyphenidyl-D,L Hydrochloride] | 96.4% | –

Record cards (already shown).
CCCc1nc(C(C)(C)O)c(C(=O)O)n1Cc1ccc(-c2ccccc2-c2nnn[nH]2)cc1 [Olmesartan] is listed with HMGB1-induced TNF-alpha production (compound concentration: 3 uM): 99.5 ± 7.6%
Cc1ccc2c(Cl)cc(Cl)c(O)c2n1 is listed with HMGB1-induced TNF-alpha production (compound concentration: 3 uM): 74.7%
O=C(OCc1ccccc1)c1ccccc1 is listed with HMGB1-induced TNF-alpha production (compound concentration: 3 uM): 93.7%
CN1CCc2cccc3c2[C@H]1Cc1ccc(O)c(O)c1-3 [Apomorphine R (-)] is listed with HMGB1-induced TNF-alpha production (compound concentration: 3 uM): 108%

— the supplement of paper PMC3682954
